# Experimental data: PubChem BioAssay AID1347423 (Functional Genomics Laboratory (NCATS/FGL), 2020)
# Among all 52,000 sequences or so, about 210 (0.4%) were called active.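 Rule for the calls: active = gene whose silencing raises cell survival under the drug, median off-target-corrected z-score across its silencing RNAs 2 or more; inactive = the rest.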 The list shows a part of the results.
# Assay: Resistance to Poly (ADP-Ribose) Polymerase inhibitor: Gene Identification via Genome-wide siRNA Screen
# Details: mouse BRCA2 R2336H ES cells, olaparib, CellTiter-Glo viability; stronger effect = higher value
# Summary of the method: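 Genome-wide siRNA screen (3 siRNAs/gene, 20 nM) in mouse ES cells carrying hypomorphic BRCA2 R2336H; olaparib 500 nM added 48 h post-transfection, CellTiter-Glo viability 72 h later. Normalized to plate-median negative control; MAD z-scores, gene median, seed-adjusted.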
row,Sequence,z-score
1,GGUCUAGCUCAAAAUCCCATT against Sfrs12,inactive: 0.22
2,CCAUUUGAUGACAGUAAUATT against Olfr178,inactive: -1.23
3,GCCUGACACUUGAUAUGUATT against 2310067G05Rik,inactive: -0.735
4,GCCGAAGUAUCUGAUAGUCTT against D930038M13Rik,inactive: 0.438
5,GGCAGAAAGCAGAAACAGUTT against Rage,inactive: -1.19
6,GCCGCGUUUUGACUGAUCATT against B130021E18,inactive: -0.324
7,GGCUUACAAAAAGUACAUCTT against Tpt1,inactive: -1.37
8,GGUAGAAGAGGAAUCUUGGTT against Pitpnm1,inactive: -0.206
9,GGGUAGAGGCCUUGAAAAUTT against Gps1,inactive: -2.12
10,GGAAGAAAAACUCUUGCACTT against Cdc5l,inactive: 0.196
11,GCUGGAAUACGGAAAAUGGTT against Gbe1,inactive: 0.204
12,CGACCAAGAGCAAAACGAUTT against Gm266,inactive: -0.945
13,CCAUGUAAGAUGUUAAGUATT against Abcb1a,inactive: 0.643
14,GGAAGAAGGCUAUAAGAAATT against Galnt6,inactive: 0.266
15,CGGUCAUUUACGAGAUACCTT against Pdgfa,inactive: 0.441
16,GGCCGGCCAGAUAAAGAAATT against Ptrf,inactive: -0.143
17,GGCCUUCAAGUGCAUGAUGTT against Yaf2,inactive: 0.181
18,CCAUGAGACAAGAUUUAGATT against Olfr818,inactive: -0.162
19,CGGACUUUUUUGGAUUUUCTT against Zfp238,inactive: 0.901
20,GGCCACGUUACACGUACUUTT against Wnt3a,inactive: 0.373
21,GGCUACAAGUGGGAAUUCATT against Cklfsf2b,inactive: -1.06
22,CCCUGAAACAAUGAAUACATT against Serpini1,inactive: -0.751
23,GCUGGUGGCACUGAAGCUATT against Nme3,inactive: -2.95
24,CCUGCUUACCAAAGAAUCCTT against Tieg3,inactive: 0.553
25,GCACAUUUGGACAACCAAUTT against LOC245128,inactive: -0.966
26,GGCCAGAACUUAAAUUUUCTT against Nbr1,inactive: -0.105
27,UGCCCUUCCUAUUUUAUAATT against 2410015A16Rik,inactive: 0.138

# A run of entries taken from the entries so far, as a working copy:
row,Sequence,z-score
24,CCUGCUUACCAAAGAAUCCTT against Tieg3,inactive: 0.553
25,GCACAUUUGGACAACCAAUTT against LOC245128,inactive: -0.966
26,GGCCAGAACUUAAAUUUUCTT against Nbr1,inactive: -0.105
27,UGCCCUUCCUAUUUUAUAATT against 2410015A16Rik,inactive: 0.138

# Continuation.

row,Sequence,z-score
1,GCUAAUGCUUGUUGAACACTT against Hpcal4,inactive: -1.18
2,GGCACAACUGAUUUUGAAATT against Ifngr2,inactive: 1.06
3,CCGUGUUCUCUAUCCAGCATT against Slc7a9,inactive: -0.514
4,GCUACUCCAUUUACAUCUATT against Hist1h2ba,inactive: 0.249
5,GGAAAGAUUUUCAUUUGAGTT against B930008K04Rik,inactive: 0.305
6,GGAUGGUGCAUACCUCUUCTT against Axin2,inactive: -0.734
7,GGCAACUUCACAACAUGCCTT against A930017K11Rik,inactive: 3.19
8,GGGAAACAAACAGAAGAACTT against B230363K08Rik,inactive: 1.28
9,GGAAAAAAACUUGCUGGAUTT against Ppp3ca,inactive: 2.12
10,CCUGUAGCUAGCUUCUAGGTT against Adamts10,inactive: 0.402
11,GGAUAUUGCCAGUAAUUAATT against Kif21a,inactive: -0.391
12,GGUUCAUGAAUGACAAACUTT against Sult4a1,inactive: 0.762
13,GGUGCUGGAGAACAUUCUATT against Angpt2,inactive: -1.91
14,GGCGAAAAAGAACUUCUCCTT against Prrx1,inactive: -1.45
15,GCUAUUCAAUCUGAGGAAATT against Olfr1278,inactive: -0.604
16,GGAAAGAAAUGCUGAAAAUTT against Atp2a2,inactive: -1.74
17,CCUAGUGUUAGAACAGAUCTT against Zmynd10,inactive: 0.961
18,GGAAACACACUGGUUCUGATT against Il6ra,inactive: -0.628
19,GGGCUACACAAAAUUUUAATT against Cxcl11,inactive: 0.842
20,GCAUCGAUCUUUAUACACUTT against Arhgef12,inactive: 0.838
21,GGACUGUCUGAUGUCAAAGTT against Synpr,inactive: 1.02
22,CCUUAAACUUGGCCGAGGUTT against 0610038D11Rik,inactive: -1.02
23,GGAACUUGGGCAUUCCAGATT against Adck2,inactive: 0.757
24,GGAGUCGUUUAAGCUUUAATT against Atbf1,inactive: 0.404
25,GGGCAUUUUUACAGUUUUCTT against Chfr,inactive: -0.137
26,CCACCAUUCGGCUCUUUUGTT against Nupl2,inactive: 1.55
27,GGGUCAUGUAACUAGUAUATT against 1810034M08Rik,inactive: 0.158

row,Sequence,z-score
1,CGGUUACUUCAGAAAUCUATT against Tlr5,inactive: 0.417
2,GGAUCCUGAACAUAUGAAUTT against D4st1,inactive: 0.814
3,GUGCUAUACUCGGUCGUCATT against MOR253-5,inactive: -1.56
4,GGACGAUUUAAGGAUUUUUTT against Tes3,inactive: 1.14
5,GCCCUUGUGAUUCGAAAUGTT against Atp1a1,inactive: -0.422
6,GGGAAAGUCAGUUUAAAGATT against Baz1b,inactive: 0.306
7,GGACAAUUGGGCCAAACUGTT against Mpv17,inactive: 0.561
8,GCAGUGUCUAGGACAGUCATT against Pdcd5,inactive: -0.0804
9,GGGUGAUGCCCUUGAAUCUTT against Ptk9l,inactive: 2.23
10,GGAUUCACGAGCAUAAGCUTT against 1700020D05Rik,inactive: 0.831
11,GCCAGUAAUCCAUACCGUGTT against C6,inactive: 0.175
12,GGAGAAGCAGCAACAGCUATT against Asgr2,inactive: -0.189
13,GGCUGUGAAGCUUACCAGCTT against Tm9sf4,inactive: 0.639
14,GGACCAUACAAUGAUUCUATT against B930008K04Rik,inactive: 0.27
15,GGUCAUAGAUAACACGCUCTT against Cpne5,inactive: 2.22
16,GGAGGAAGCUGUCAAGGAUTT against AU040576,inactive: -1.64
17,CGAGGUCAUCAUCAUCGAATT against Ccbl1,inactive: 0.509
18,GCCUUCCAGUCAGUGAAAUTT against Foxn1,inactive: 0.346
19,GCGCAACAGGAUUCAGCUATT against Csmd1,inactive: 1.27
20,GUCUUCAUACUCCAAUGUATT against Olfr878,inactive: -0.919
21,GGCUUUUGAUGAGGUAAAATT against AI840980,inactive: 1.63
22,GGGAGCAUCAGUUAAUUUUTT against Yes,inactive: -0.0597
23,GGACCUGUAUUCUCAGGGATT against Sprrl2,inactive: -0.501
24,GGAAAAGGAAAGGACUAAGTT against Mdk,inactive: 0.665
25,GCAUGUAGUAUGGUAACACTT against Akr1b7,inactive: -0.975
26,GGAUCUGAAAGAUCAGAUUTT against Lmnb1,inactive: 0.337
27,UAUUGUUCACUGCACUGUATT against Leftb,inactive: 0.106

row,Sequence,z-score
1,GGAAGAAGAAGGAAGAUGATT against Cfdp1,inactive: -2.45
2,GGAUACCUAUCUGCACUUCTT against 1700049K14Rik,inactive: 0.472
3,UUGGUUCAACCUCAUCAUATT against Olfr869,inactive: 0.227
4,GGGAUUUGUUACCCUCCUCTT against Eppb9,inactive: -1.99
5,CGAUCUAGUCAACAUCAAATT against Fcer2a,inactive: 0.729
6,GGAACUACAGAAUUUAUUGTT against Rfxdc1,inactive: 2.05
7,GGACUUCCAUAAGAUGAAATT against Nrap,inactive: -0.474
8,GGGAUAAGACAGGAGACUUTT against Slc16a11,inactive: -1.14
9,CCCUUAAGUCUUUUUCCUATT against Cugbp2,inactive: 0.709
10,GGCUUCCAAGCCUAAAGCUTT against Hist1h1d,inactive: -1.06
11,AUAAAAGUGACUCACCAACTT against A4galt,inactive: 1.74
12,GGACUGAUUCGUCUAAUACTT against Ckap2,inactive: -1.52
13,GCCAGGUUUACCUAAGAGGTT against Rhog,inactive: -0.0106
14,GGCGACUUAUUAAAAUCCUTT against Fads3,inactive: 0.648
15,GGACUUGCGCGACAAGAUUTT against Krt1-19,inactive: -0.646
16,GGUACAGGUUGGCAUUGAUTT against Aasdhppt,inactive: 2.06
17,GGAGAAAGAAUCUGAAAAUTT against 4922504H04Rik,inactive: -3.21
18,GGACAAACUCUUGCUCUCCTT against Chpt1,inactive: -0.688
19,GGAGAGUACUGCCAGACUCTT against Ring1,inactive: 0.394
20,GGAUAUCUCACUGCUUUUATT against Mpp5,inactive: 0.482
21,GGUUGAAGAGCAUGAGAGCTT against A330041J22Rik,inactive: 0.0833
22,GGCCGAACCAUCUCAUACCTT against Olfr976,inactive: 1.19
23,GGCUCCUAACUCACUGGGATT against C730042F17Rik,inactive: -0.787
24,GGAGGUUAAGAGAUCUCCATT against 2410042D21Rik,inactive: 0.663
